Measurements published in paper PMC11377671.
These are yes or no findings as the source states them, for the method shown. Binding seen in cells or lysates may run through a third protein. Some results given as binding are weak or reduced against the parent protein; the word gives no strength. Sequences can lack the tags named with a protein. One block for each molecule: values may come before it.

The chains behind the UniProt entries cited, without tags or fusion partners.
UniProt P18888: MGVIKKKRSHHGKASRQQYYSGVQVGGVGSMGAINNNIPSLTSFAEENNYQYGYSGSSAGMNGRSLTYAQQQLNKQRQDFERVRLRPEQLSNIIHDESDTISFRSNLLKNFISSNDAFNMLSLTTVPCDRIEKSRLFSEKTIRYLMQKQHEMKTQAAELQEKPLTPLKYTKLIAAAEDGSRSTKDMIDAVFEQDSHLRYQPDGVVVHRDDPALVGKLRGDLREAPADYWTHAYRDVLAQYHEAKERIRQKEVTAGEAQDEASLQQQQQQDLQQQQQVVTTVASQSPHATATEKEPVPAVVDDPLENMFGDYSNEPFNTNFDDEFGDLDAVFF

Tests used:
[1] = molecular target: T1, GST-Pho4 TAD (aa 1–104) (S. cerevisiae) (UniProt P07270); assay: pull-down; GST-TAD fusion from E. coli immobilized on GSH sepharose, incubated with total protein extract of E. coli transformants containing the HA fusion; buffer SA-125 (20 mM HEPES pH 7.6, 1 mM DTT, 1 mM EDTA, 125 mM K-acetate, 20% glycerol, 1% NP-40); elution with free GSH, anti-HA blot; only the target purified
T1 sequence: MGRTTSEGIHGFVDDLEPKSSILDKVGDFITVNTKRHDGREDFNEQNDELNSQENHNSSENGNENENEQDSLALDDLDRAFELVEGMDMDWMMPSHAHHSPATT

[2] = molecular target: T2, GST-Ino2 TAD1 (aa 1–35) (S. cerevisiae) (UniProt P26798); assay: as above
T2 sequence: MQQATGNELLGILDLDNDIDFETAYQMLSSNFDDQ

[3] = molecular target: T3, GST-Ino2 TAD2 (aa 101–135) (S. cerevisiae) (UniProt P26798); assay: as above
T3 sequence: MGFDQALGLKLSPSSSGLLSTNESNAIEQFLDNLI

[4] = molecular target: T1, GST-Pho4 TAD (aa 1–104) (S. cerevisiae); assay: pull-down; GST-TAD fusion from E. coli immobilized on GSH sepharose, incubated with total protein extract of yeast transformants containing the HA fusion; buffer SA-125 (20 mM HEPES pH 7.6, 1 mM DTT, 1 mM EDTA, 125 mM K-acetate, 20% glycerol, 1% NP-40); elution with free GSH, anti-HA blot; only the target purified
[5] = molecular target: T2, GST-Ino2 TAD1 (aa 1–35) (S. cerevisiae); assay: as above
[6] = molecular target: T3, GST-Ino2 TAD2 (aa 101–135) (S. cerevisiae); assay: as above
[7] = molecular target: T2, GST-Ino2 TAD1 (aa 1–35) (S. cerevisiae); assay: pull-down; GST-Ino2 TAD1 immobilized on GSH sepharose, incubated with protein extract containing the HA-tagged length variant made in E. coli or in S. cerevisiae (host of each variant marked only in Fig. 3B, 4B); buffer SA-125; anti-HA blot; only the target purified
[8] = molecular target: T3, GST-Ino2 TAD2 (aa 101–135) (S. cerevisiae); assay: pull-down; mapping of Swi1 length variants with Ino2 TAD2; not shown; only the target purified
[9] = molecular target: T2, GST-Ino2 TAD1 (aa 1–35) (S. cerevisiae); assay: pull-down; GST-TAD fusion from E. coli immobilized on GSH sepharose, incubated with total protein extract of yeast transformants containing the HA fusion; buffer SA-125 (20 mM HEPES pH 7.6, 1 mM DTT, 1 mM EDTA, 125 mM K-acetate, 20% glycerol, 1% NP-40); elution with free GSH, anti-HA blot; only the target purified; remark: listed apart in the source
[10] = molecular target: T3, GST-Ino2 TAD2 (aa 101–135) (S. cerevisiae); assay: as above; remark: listed apart in the source

Molecule: Full-length HA-Snf6, synthesized in E. coli (from UniProt P18888 1-332)
binding [1]: binds | binding [2]: binds | binding [3]: binds

B2: HA-tagged Swi1 length variant aa 329–657, synthesized in S. cerevisiae (domain or fragment, UniProt P09547 329-657)
chain: RAAMFAALQQKQQQRFQALQQQQQQQQNQQQQNQQPQQQQQQQQNPKFLQSQRQQQQRSILQSLNPALQEKISTELNNKQYELFMKSLIENCKKRNMPLQSIPEIGNRKINLFYLYMLVQKFGGADQVTRTQQWSMVAQRLQISDYQQLESIYFRILLPYERHMISQEGIKETQAKRIFLQQFLQELLKKVQQQQQAAALANANNNINSASSAPTPAAPGASVPATAAPGTEAGIVPVSANTPKSLNSNININVNNNNIGQQQVKKPRKQRVKKKTKKELELERKEREDFQKRQQKLLEDQQRQQKLLLETKLRQQYEIELKKLPKVYK
binding [9]: binds | binding [10]: binds

The next lines start with the values.

binding [4]: binds | binding [5]: binds | binding [6]: binds
Molecule: Full-length HA-Snf6, synthesized in S. cerevisiae (from UniProt P18888 1-332)

binding [7]: binds | binding [8]: binds
B1: HA-Swi1 variant aa 428–606 (domain or fragment, UniProt P09547 428-606)
chain: QSIPEIGNRKINLFYLYMLVQKFGGADQVTRTQQWSMVAQRLQISDYQQLESIYFRILLPYERHMISQEGIKETQAKRIFLQQFLQELLKKVQQQQQAAALANANNNINSASSAPTPAAPGASVPATAAPGTEAGIVPVSANTPKSLNSNININVNNNNIGQQQVKKPRKQRVKKKTKK
